According to patent US20200392228A1:
Numbering of substitutions follows the chain as printed. Results are given in words; binding and its absence hold for the method and conditions named. Some results given as binding are weak or reduced against the parent protein; the word gives no strength.

The chains behind the UniProt entries cited, without tags or fusion partners. Where a name states a change or a piece, a line headed by the entry shows the natural chain unless it says otherwise. Residues count along the entry.
UniProt Q13477: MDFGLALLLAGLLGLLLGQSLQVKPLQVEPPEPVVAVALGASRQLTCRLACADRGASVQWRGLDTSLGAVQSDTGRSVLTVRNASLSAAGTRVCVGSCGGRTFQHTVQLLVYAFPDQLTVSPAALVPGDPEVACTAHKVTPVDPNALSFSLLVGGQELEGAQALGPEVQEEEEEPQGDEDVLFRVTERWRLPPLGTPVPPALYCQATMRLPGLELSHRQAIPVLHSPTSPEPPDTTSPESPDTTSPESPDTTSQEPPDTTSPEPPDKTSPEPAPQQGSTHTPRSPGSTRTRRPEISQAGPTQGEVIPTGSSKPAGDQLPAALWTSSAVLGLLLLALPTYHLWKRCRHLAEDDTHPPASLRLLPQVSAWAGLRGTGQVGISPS
human MAdCAM expressed on cells: residues 19-382 of Q13477
human MAdCAM protein: residues 19-317 of Q13477
UniProt Q61826, residues 22-405: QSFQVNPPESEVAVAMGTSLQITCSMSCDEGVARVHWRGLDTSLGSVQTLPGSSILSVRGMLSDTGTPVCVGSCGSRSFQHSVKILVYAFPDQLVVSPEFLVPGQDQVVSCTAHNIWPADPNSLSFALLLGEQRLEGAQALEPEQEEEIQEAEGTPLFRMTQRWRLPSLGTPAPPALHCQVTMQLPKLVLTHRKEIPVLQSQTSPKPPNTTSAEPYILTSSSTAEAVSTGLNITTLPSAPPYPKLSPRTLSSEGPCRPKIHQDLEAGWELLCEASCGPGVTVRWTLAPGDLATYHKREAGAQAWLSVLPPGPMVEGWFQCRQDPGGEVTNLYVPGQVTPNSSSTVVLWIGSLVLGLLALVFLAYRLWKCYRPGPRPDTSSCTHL

B1: MAdCAM antibody Clone ID 63 of Table 7 (IgG) (antibody, V domains shown)
VH: EVQLLESGGGLVQPGGSLRLSCAASGFTFNNYGMNWVRQAPGKGLEWVSRINSDGSSTSYADSVKGRFTISRDNSKNTLYLQMNSLRAEDTAVYYCARGAYYYYYMDVWGQGTLVTVSS
VL: EIVMTQSPATLSVSPGERATLSCRASQSVSGSYLAWYQQKPGQAPRLLIYATSSRASGIPARFSGSGSGTEFTLTISSLQSEDFAVYYCQQYYSGLTFGQGTKVEIK
B2: MAdCAM antibody Clone ID 83 of Table 7 (IgG) (antibody, V domains shown)
VH: EVQLLESGGGLVQPGGSLRLSCAASGFTFSSYWMHWVRQAPGKGLEWVAAISYDGKYKDYEDSVKGRFTISRDNSKNTLYLQMNSLRAEDTAVYYCARENKQWLASFDYWGQGTLVTVSS
VL: DIQMTQSPSSLSASVGDRVTITCQASQDISNFVNWYQQKPGKAPKLLIYAANLRSGVPSRFSGSGSGTDFTLTISSLQPEDFATYYCQQANSFPVTFGPGTKVDIK
B3: MAdCAM antibody Clone ID 12 of Table 6 (scFv) (scFv)
scFv: QVQLVQSGAEVKKPGASVKVSCKASGYTFTGYYMHWVRQAPGQGLEWMGWIGPNSGDTNYAQKFQGRVTMTRDTSTSTVYMELSSLRSEDTAVYYCARDLDHNWYFDLWGRGTLVTVSSGGGGSGGGGSGGGGSGGGGSDIVMTQSPLSLPVTPGEPASISCRSSQSLLHSNGYNYLDWYLQKPGQSPQLLIYSSSNRAPGVPDRFSGSGSGTDFTLKISRVEAEDVGVYYCMQALHIPLTFGGGTKVEIK
B4: MAdCAM antibody Clone ID 60 of Table 7 (IgG) (antibody, V domains shown)
VH: EVQLLESGGGLVQPGGSLRLSCAASGFTFSDHGMHWVRQAPGKGLEWVSVIYGGESTYYADSVKGRFTISRDNSKNTLYLQMNSLRAEDTAVYYCARDPAVAGGGIFDYWGQGTLVTVSS
VL: DIQMTQSPSSLSASVGDRVTITCRASQGISNYLAWYQQKPGKAPKLLIYDASNLETGVPSRFSGSGSGTDFTLTISSLQPEDFATYYCQQSYSTCYTFGQGTKLEIK
B5: MAdCAM antibody Clone ID 81 of Table 7 (IgG) (antibody, V domains shown)
VH: EVQLLESGGGLVKPGGSLRLSCAASGFAFSSHWMHWVRQAPGKGLEWVAGTSGSGESRDYADFVKGRFTISRDDSKNTLYLQMNSLKTEDTAVYYCARETYYYYYMDVWGKGTTVTVSS
VL: B4 VL with S52A, T56G, Y92D, S93I, T94F, C95P, Y96P, L104V
B6: MAdCAM antibody Clone ID 55 of Table 7 (IgG) (antibody, V domains shown)
VH: EVQLLESGGGLVQPGGSLRLSCAASGFTFDDFAMHWVRQAPGKGLEWVSGISGNGDSRYYADSVKGRFTISRDNSKNTLYLQMNSLRAEDTAVYYCARDASYGGNYGMDVWGQGTTVTVSS
VL: DIQMTQSPSSLSASVGDRVTITCQASQDIRNYLNWYQQKPGKAPKLLIYKASTLESGVPSRFSGSGSGTDFTLTISSLQPEDFATYYCQQANSFPLTFGPGTKVDIK
B7: MAdCAM antibody Clone ID 76 of Table 7 (IgG) (antibody, V domains shown)
VH: EVQLLESGGGLVQPGGSLRLSCAASGFTFDDYTMHWVRQAPGKGLEWVSDISGSGGSTYYADSVKGRFTISRDNSKNTLYLQMNSLRAEDTAVYYCAKDVVVAGTPLHFDYWGQGTLVTVSS
VL: DIQMTQSPSSLSASVGDRVTITCQASQDISNYLNWYQQKPGKAPKLLIYAASYLQSGVPSRFSGSGSGTDFTLTISSLQPEDFATYYCQQAHNYPITFGQGTRLEIK
B8: MAdCAM antibody Clone ID 77 of Table 7 (IgG) (antibody, V domains shown)
VH: EVQLLESGGGLVQPGGSLRLSCAASEFTFSNAWMSWVRQAPGKGLEWVASISSTSAYIDYADSVKGRFTISRDNSKNTLYLQMNSLRAEDTAVYYCAREVVGATTFDYWGQGTLVTVSS
VL: B7 VL with Q24R, D28S, N31T, Y32W, N34A, Y53S, H92N, N93A, Y94F, I96P
B9: MAdCAM antibody Clone ID 65 of Table 7 (IgG) (antibody, V domains shown)
VH: QVQLVQSGAEVKKPGASVKVSCKASGYTFTSYDINWVRQAPGQGLEWMGWMNPNSGNTGYAQKFQGRVTMTRDTSTSTVYMELSSLRSEDTAVYYCAKDSDYSNLLWDYWGQGTLVTVSS
VL: DIQMTQSPSSLSASVGDRVTITCRASQDITNDLGWYQQKPGKAPKLLIYQASSLESGVPSRFSGSGSGTDFTLTISSLQPEDFATYYCQQSYTIPLTFGQGTKVEIK
B10: MAdCAM antibody Clone ID 74 of Table 7 (IgG) (antibody, V domains shown)
VH: QVQLVQSGAEVKKPGASVKVSCKASGYTFTGYYMHWVRQAPGQGLEWMGIINPSGGNTKYAQKFQGRVTMTRDTSTSTVYMELSSLRSEDTAVYYCTTADYYYYMDVWGKGTTVTVSS
VL: DIQMTQSPSSLSASVGDRVTITCRASQGISNYLAWYQQKPGKAPKLLIYAASSLQSGVPSRFSGSGSGTDFTLTISSLQPEDFATYYCQQYYSNADFGQGTKVEIK
B11: MAdCAM antibody Clone ID 82 of Table 7 (IgG) (antibody, V domains shown)
VH: QVQLVQSGAEVKKPGASVKVSCKASGYTFTRHWIHWVRQAPGQGLEWMGWINVKTGGAGYAQKFQGRVTMTRDTSTSTVYMELSSLRSEDTAVYYCARESSGWYGTDVWGQGTTVTVSS
VL: DIQMTQSPSSLSASVGDRATITCRASQSISNYLAWYQQKPGKAPKLLIYAASSLQSGVPSRFSGSGSGTDFTLTISSLQPEDFATYYCQQSNSFPLTFGGGTKVEIK
B12: MAdCAM antibody Clone ID 25 of Table 6 (scFv) (scFv)
scFv: QVQLVQSGAEVKKPGASVKVSCKASGYTLTTWYMYWVRQAPGQGLEWMGWINPNRGATNYAQKFQGRVTMTRDTSTSTVYMELSSLRSEDTAVYYCAKGDLWGAMDVWGQGTLVTVSSGGGGSGGGGSGGGGSGGGGSDIQMTQSPSSLSASVGDRVTITCRASDNIGSWLAWYQQKPGKAPKLLIYAASSLQSGVPSRFSGSGSGTDFTLTISSLQPEDFATYYCQQGYSTPPTFGQGTKVEIK
B13: MAdCAM antibody Clone ID 30 of Table 6 (scFv) (scFv)
scFv: B12 scFv
B14: MAdCAM antibody Clone ID 2 of Table 7 (IgG) (antibody, V domains shown)
VH: QVQLVQSGAEVKKPGASVKVSCKASGYPFIGYYLHWVRQAPGQGLEWMGIINPSGGSTSYAQKFQGRVTMTRDTSTSTVYMELSSLRSEDTAVYYCAREGRLSYGMDAWGQGTLVTVSS
VL: DIQMTQSPSSLSASVGDRVTITCRASQSISSYLAWYQQKPGKAPKLLIYGASTLESGVPSRFSGSGSGTDFTLTISSLQPEDFATYYCQQTWGPPFTFGQGTKLEIK
B15: MAdCAM antibody Clone ID 3 of Table 7 (IgG) (antibody, V domains shown)
VH: B14 VH with Y32Q
VL: B14 VL
B16: MAdCAM antibody Clone ID 10 of Table 7 (IgG) (antibody, V domains shown)
VH: EVQLLESGGGLVQPGGSLRLSCAASGFMFGDYAMHWVRQAPGKGLEWVSAISGSGGSTYYADSVKGRFTISRDNSKNTLYLQMNSLRAEDTAVYYCAKDLVVAGIWYFDLWGRGTLVTVSS
VL: B4 VL with Y32N, A34N, N53S, T56S, S91T, Y92H, T94F, C95P, Y96S

Target: human MAdCAM expressed on cells (human) (UniProt Q13477)
Test: cell binding

binding | Binder
binds | B1
binds | B2
binds | B3
binds | B4
binds | B5
binds | B6
binds | B7
binds | B8
binds | B9
binds | B10
binds | B11
binds | B12
binds | B13
binds | B14
binds | B15
binds | B16

Target: mouse MAdCAM expressed on cells (mouse) (UniProt Q61826)
Test: cell binding

binding | Binder
binds | B2
binds | B4
binds | B5
binds | B7
binds | B8
binds | B11
binds | B14
binds | B15
binds | B16

Target: human MAdCAM protein (human) (UniProt Q13477)
Test: Octet

binding | Binder
binds | B1
binds | B2
binds | B4
binds | B6
binds | B7
binds | B9
binds | B10
binds | B11
